In patent publication US20060084694A1, “Ligand-dependant activation of Nur77 and uses thereof” (priority 2004, published 2006):
Some results were stated once for a whole list of compounds, not compound by compound. For some of these results: At least one compound was matched to its structure with a doubt left. Some compounds share one range, which may span the group rather than tell each member. Where a SMILES comes first, the peptide text is derived from it. The star is where a group is joined. Cbz = O=C(OCc1ccccc1)*; CH2F = FC*

Key:
PARP cleavage = PARP cleavage in Panc-28 cells (Western blot); type: cell-based; details: Panc-28, caspase inhibitors (FIG. 6C)
Panc-28 cells = experiment: Cell survival of Panc-28 cells; type: cell-based; details: FIG. 5A, 4 day experiment

SMILES | block of induction of PARP cleavage by Nur77 agonists (PARP cleavage) | IC50 (Panc-28 cells)
CC[C@H](C)[C@H](NC(=O)OCc1ccccc1)C(=O)N[C@@H](CCC(=O)OC)C(=O)N[C@H](C(=O)N[C@@H](CC(=O)OC)C(=O)CF)[C@@H](C)O [Z-IETD-FMK] (Cbz-IE(OMe)TD(OMe)-CH2F) | 60-90% | –
c1ccc(C(c2c[nH]c3ccccc23)c2c[nH]c3ccccc23)cc1 [DIM-C-Ph] | – | 1 to 5 µM
FC(F)(F)c1ccc(C(c2c[nH]c3ccccc23)c2c[nH]c3ccccc23)cc1 [DIM-C-pPhCF3] | – | 1 to 5 µM
COc1ccc(C(c2c[nH]c3ccccc23)c2c[nH]c3ccccc23)cc1 [DIM-C-pPhOCH3] | – | 1 to 5 µM
